# Results: the supplement of paper PMC12067093, “Discovery and optimisation of a covalent ligand for TRIM25 and its application to targeted protein ubiquitination” (Chemical Science, 2025)
# Sequences of proteins named here, by UniProt entry; tags and fusion partners are left off. A change or cut given only in a name is not applied to a line headed by its entry.
# UniProt Q14807: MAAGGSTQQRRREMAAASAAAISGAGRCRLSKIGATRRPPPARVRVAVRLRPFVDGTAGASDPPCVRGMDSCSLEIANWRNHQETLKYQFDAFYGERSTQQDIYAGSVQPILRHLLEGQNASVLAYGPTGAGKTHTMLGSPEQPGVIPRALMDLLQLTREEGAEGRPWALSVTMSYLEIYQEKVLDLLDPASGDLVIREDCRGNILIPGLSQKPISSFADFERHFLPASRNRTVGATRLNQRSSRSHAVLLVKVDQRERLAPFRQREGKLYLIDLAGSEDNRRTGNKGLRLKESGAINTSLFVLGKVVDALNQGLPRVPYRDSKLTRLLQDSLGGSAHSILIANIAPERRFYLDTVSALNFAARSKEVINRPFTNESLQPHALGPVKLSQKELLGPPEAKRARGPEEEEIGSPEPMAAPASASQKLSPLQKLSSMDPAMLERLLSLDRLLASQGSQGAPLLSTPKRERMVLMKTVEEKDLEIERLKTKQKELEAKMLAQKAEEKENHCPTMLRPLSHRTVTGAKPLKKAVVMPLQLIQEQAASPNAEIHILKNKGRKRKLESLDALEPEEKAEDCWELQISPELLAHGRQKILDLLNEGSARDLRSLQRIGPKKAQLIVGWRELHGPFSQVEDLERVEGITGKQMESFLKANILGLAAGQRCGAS
# UniProt O60674: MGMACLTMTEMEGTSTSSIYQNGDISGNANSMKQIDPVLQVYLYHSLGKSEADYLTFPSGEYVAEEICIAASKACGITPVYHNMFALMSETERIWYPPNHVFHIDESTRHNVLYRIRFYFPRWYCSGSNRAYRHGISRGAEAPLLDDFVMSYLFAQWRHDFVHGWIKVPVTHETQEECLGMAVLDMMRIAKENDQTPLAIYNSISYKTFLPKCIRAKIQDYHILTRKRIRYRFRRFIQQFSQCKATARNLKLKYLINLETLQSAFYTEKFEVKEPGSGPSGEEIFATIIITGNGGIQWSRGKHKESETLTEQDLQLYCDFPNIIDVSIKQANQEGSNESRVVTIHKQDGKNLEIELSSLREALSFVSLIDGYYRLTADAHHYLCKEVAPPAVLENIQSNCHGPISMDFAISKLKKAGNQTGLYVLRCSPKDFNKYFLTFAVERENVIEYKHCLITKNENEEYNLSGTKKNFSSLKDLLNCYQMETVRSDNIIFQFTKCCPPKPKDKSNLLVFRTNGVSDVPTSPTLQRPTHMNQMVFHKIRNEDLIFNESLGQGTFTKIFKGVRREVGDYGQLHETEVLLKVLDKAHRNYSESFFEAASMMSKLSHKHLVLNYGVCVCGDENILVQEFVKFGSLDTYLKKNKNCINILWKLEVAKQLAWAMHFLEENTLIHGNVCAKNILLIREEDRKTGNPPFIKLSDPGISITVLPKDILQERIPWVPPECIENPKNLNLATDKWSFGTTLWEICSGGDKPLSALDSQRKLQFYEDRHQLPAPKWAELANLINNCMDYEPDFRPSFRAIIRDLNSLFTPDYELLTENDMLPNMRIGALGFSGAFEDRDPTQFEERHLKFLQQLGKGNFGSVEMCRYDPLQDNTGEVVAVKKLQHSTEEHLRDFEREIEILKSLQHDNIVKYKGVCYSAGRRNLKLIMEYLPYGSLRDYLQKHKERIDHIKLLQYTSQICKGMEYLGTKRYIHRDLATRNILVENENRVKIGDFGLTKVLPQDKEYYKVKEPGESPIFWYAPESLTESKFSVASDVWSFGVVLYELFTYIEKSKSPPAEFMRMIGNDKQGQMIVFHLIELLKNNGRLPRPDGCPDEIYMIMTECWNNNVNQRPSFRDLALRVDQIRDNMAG
# UniProt Q9NXV2: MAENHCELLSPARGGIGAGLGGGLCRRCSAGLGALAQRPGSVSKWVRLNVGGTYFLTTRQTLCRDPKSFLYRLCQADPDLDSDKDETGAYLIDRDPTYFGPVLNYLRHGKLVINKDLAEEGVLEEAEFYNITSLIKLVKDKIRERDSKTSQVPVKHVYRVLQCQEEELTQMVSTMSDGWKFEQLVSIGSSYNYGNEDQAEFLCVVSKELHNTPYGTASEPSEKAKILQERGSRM
# UniProt Q8TAC2: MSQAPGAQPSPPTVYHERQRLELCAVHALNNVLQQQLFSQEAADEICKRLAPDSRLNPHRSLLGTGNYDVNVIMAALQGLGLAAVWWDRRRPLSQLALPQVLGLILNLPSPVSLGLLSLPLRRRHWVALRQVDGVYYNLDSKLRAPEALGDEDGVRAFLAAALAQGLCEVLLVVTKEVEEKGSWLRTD
# UniProt P26440: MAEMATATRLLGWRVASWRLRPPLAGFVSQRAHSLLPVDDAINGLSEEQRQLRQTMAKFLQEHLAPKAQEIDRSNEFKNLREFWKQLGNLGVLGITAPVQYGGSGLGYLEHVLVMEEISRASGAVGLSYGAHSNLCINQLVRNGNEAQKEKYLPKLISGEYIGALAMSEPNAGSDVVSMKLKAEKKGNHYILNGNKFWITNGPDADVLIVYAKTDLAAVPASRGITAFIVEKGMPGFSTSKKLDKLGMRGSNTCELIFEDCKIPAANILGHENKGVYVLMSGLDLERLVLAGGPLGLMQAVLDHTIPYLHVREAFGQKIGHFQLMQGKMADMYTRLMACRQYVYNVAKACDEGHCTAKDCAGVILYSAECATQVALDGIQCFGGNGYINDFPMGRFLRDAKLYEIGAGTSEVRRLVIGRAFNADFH
# UniProt Q9Y2K7: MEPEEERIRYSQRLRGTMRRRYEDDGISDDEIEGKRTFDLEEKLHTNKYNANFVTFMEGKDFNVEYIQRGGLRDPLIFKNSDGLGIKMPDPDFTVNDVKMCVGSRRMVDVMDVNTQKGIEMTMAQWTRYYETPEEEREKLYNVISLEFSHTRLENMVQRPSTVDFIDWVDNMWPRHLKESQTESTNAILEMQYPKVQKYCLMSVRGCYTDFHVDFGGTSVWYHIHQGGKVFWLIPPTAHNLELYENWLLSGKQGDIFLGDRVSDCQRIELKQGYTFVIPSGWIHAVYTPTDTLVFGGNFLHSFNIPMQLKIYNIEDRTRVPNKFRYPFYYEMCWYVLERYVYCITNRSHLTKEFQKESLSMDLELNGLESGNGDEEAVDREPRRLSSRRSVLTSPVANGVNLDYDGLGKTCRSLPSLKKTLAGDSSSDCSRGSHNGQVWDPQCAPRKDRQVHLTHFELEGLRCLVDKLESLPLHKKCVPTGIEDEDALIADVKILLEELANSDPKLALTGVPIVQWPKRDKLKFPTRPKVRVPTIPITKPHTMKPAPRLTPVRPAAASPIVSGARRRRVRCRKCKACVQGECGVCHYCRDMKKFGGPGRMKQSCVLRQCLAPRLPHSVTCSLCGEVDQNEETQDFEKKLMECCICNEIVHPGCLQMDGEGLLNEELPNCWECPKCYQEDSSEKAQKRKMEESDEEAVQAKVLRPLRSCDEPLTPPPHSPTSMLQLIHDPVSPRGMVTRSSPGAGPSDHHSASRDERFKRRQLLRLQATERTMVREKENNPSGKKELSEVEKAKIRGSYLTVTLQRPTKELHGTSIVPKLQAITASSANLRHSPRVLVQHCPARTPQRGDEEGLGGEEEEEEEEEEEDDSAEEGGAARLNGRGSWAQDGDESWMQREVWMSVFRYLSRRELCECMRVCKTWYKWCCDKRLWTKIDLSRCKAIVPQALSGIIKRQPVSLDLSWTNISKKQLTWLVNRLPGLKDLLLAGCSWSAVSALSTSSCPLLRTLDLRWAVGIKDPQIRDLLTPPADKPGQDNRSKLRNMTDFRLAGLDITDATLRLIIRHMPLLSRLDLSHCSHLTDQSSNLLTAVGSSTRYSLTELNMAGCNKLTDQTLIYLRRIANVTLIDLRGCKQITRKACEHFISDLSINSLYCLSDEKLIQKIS
# UniProt Q14643, whole entry, looked up: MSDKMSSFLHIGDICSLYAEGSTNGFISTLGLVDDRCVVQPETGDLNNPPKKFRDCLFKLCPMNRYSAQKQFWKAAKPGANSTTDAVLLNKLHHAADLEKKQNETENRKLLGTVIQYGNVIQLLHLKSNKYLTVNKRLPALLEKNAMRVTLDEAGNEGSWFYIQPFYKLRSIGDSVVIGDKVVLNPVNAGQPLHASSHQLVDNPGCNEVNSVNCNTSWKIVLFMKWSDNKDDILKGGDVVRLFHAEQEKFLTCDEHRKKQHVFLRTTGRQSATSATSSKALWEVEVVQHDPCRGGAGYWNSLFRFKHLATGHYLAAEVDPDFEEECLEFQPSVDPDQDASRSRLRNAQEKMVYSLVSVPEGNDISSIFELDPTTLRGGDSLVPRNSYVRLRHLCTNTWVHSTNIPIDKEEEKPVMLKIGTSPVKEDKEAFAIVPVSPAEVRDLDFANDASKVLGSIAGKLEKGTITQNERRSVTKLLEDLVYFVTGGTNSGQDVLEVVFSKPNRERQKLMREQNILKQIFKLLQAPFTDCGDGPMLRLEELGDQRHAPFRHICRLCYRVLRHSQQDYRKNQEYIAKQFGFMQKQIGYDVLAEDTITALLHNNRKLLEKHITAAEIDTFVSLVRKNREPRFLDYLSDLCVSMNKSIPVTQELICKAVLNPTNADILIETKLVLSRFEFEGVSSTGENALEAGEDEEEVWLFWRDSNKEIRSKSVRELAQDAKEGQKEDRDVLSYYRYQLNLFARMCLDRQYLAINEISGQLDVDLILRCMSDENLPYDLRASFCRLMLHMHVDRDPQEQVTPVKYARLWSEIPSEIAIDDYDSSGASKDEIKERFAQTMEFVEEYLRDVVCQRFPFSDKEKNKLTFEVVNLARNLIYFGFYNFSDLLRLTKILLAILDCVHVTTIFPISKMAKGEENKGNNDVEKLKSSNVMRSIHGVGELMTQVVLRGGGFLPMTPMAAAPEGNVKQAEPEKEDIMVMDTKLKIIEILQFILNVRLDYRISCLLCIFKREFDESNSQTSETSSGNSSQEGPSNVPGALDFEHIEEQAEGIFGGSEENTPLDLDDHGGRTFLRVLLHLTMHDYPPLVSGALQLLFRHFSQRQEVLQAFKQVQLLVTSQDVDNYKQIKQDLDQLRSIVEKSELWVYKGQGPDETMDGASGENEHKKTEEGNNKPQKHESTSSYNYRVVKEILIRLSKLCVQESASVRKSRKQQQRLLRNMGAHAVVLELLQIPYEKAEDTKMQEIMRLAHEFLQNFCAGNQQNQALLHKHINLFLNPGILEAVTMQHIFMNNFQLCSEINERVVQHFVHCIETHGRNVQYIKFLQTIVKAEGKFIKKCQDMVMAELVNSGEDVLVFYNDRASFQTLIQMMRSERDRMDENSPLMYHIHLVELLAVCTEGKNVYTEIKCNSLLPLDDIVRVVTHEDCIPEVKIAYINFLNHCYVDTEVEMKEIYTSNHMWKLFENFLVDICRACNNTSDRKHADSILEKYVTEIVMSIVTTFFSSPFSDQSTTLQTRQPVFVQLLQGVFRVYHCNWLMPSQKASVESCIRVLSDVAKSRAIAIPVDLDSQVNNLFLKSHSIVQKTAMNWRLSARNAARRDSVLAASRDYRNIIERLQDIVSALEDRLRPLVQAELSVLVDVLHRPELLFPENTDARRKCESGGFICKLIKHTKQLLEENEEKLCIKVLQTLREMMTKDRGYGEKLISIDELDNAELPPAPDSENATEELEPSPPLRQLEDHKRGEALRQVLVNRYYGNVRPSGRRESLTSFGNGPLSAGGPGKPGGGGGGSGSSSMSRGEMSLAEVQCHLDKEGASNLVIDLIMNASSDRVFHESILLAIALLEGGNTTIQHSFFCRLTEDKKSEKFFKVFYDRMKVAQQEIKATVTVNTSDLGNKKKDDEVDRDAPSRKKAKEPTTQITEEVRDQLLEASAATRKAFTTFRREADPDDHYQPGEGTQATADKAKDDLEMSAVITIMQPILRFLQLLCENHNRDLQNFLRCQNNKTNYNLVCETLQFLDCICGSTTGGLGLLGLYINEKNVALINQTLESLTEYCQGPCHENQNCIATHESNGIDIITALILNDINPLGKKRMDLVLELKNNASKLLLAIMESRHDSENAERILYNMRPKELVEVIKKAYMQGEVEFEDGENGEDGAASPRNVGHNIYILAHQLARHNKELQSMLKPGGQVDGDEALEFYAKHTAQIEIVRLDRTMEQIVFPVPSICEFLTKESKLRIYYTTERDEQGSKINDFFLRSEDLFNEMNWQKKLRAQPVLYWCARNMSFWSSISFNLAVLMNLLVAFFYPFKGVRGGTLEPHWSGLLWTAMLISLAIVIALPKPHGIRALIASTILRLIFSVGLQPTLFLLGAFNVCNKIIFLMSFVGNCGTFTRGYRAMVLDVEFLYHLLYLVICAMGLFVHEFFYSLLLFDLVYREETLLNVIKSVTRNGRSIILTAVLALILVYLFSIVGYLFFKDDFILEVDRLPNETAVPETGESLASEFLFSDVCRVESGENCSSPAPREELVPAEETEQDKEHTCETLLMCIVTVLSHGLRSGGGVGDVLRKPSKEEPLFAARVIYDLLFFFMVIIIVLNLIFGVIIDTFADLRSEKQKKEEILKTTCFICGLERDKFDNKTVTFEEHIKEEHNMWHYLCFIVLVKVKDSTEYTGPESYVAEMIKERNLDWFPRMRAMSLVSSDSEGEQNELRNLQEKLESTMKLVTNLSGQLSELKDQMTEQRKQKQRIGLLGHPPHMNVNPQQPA
# Some of the results follow.
# Compound: Cc1cc(ccc1-c1ccccc1)C(=O)N1CCCN(CC1)C(=O)CCl [compound 10]
# Experiment: probe-labelled cysteine peptide fold change vs DMSO (competition) (log2 fold change); higher = less target engagement (more negative = stronger competition)
# Conditions: 10 µM; THP-1; incubation time: 4 h
# 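Note: competitive profiling in live THP-1 cells: cysteine peptides tagged with an iodoacetamide desthiobiotin (IA-DTB) probe, intensity after compound treatment relative to DMSO-treated cells.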
row,Target,probe-labelled cysteine peptide fold change
1,KDM4A_O75164_430_EDLSSEQYEMTECPAALAPVRPTHSSVR (UniProt O75164),-0.634
2,KIF22_Q14807_201_VLDLLDPASGDLVIREDCR (UniProt Q14807),-0.209
3,JAK2_O60674_178_VPVTHETQEECLGMAVLDMMR (UniProt O60674),-0.094
4,KDM3B_Q7LBC6_937_EQEQDDSTVACR (UniProt Q7LBC6),-0.126
5,KCTD3_Q9Y597_704_GATGECNISER (UniProt Q9Y597),-0.23
6,KCTD5_Q9NXV2_6_AENHCELLSPAR (UniProt Q9NXV2),-0.938

# Same assay, conditions: 50 µM; THP-1; incubation time: 4 h
row,Target,probe-labelled cysteine peptide fold change
1,IVNS1ABP_Q9Y6Y0_482_NCDVFDPVTK (UniProt Q9Y6Y0),0.12
2,KCTD12_Q96CX2_50_CTVVSVPDSLLWR (UniProt Q96CX2),-0.28
3,KDM4A_O75164_917_FYQCEVVR (UniProt O75164),0.00976
4,JOSD2_Q8TAC2_24_LELCAVHALNNVLQQQLFSQEAADEICKR (UniProt Q8TAC2),-0.878
5,KDM3B_Q7LBC6_1386_EMVMGLNVLDPHTSHSWLCDGR (UniProt Q7LBC6),-0.155
6,JMJD1C_Q15652_508_CVIDITNDTNLEK (UniProt Q15652),-0.0495
7,KDM3B_Q7LBC6_1357_ACNLTDTQK (UniProt Q7LBC6),-0.521
8,KIF1B_O60333_356_CNAVINEDPNAK (UniProt O60333),0.131
9,ITPRIP_Q8IWB1_268_LGEDMLCLLHGR (UniProt Q8IWB1),-0.153
10,KIF15_Q9NS87_1062_ILSEDIERDMLCEDLAHATEQLNMLTEASK (UniProt Q9NS87),-0.085
11,ITPR2_Q14571_1385_DRGDESGPLAYHITLVELLAACTEGK (UniProt Q14571),0.386
12,KDM4A_O75164_844+847_TAGCCVQCSHGR (UniProt O75164),0.0613
13,KCMF1_Q9P0J7_9+12_HEGVSCDACLK (UniProt Q9P0J7),-0.611
14,IVD_P26440_355_ACDEGHCTAK (UniProt P26440),0.00421
15,KDM2A_Q9Y2K7_1104_YSLTELNMAGCNK (UniProt Q9Y2K7),0.166
16,KIF13B_Q9NQT8_773_ECEEDNPVIR (UniProt Q9NQT8),0.165
17,ITPR2_Q14571_379_ADCLVPR (UniProt Q14571),-0.509
18,KIF20A_O95235_87_QEDQGCVR (UniProt O95235),0.315
19,IVD_P26440_261_GSNTCELIFEDCKIPAANILGHENK (UniProt P26440),-0.169

row,Target,probe-labelled cysteine peptide fold change
1,KDM3A_Q9Y4C1_251_IVDPSLIHVEVVHDNLVTCGNSAR (UniProt Q9Y4C1),-0.746
2,KDM1A_O60341_360_CPLYEANGQAVPK (UniProt O60341),0.0513
3,KIF21B_O75037_203_LIHSQEELIQCLK (UniProt O75037),0.0784
4,KBTBD11_O94819_483+485_RDEWQECPCSSSR (UniProt O94819),-0.627
5,ITSN2_Q9NZM3_530_QCDLEIMEIK (UniProt Q9NZM3),0.101
6,KATNB1_Q9BVA0_579_YESYVQTGCTSLK (UniProt Q9BVA0),0.238
7,KDM2A_Q9Y2K7_913_ELCECMR (UniProt Q9Y2K7),0.0749
8,KIF15_Q9NS87_1062_ILSEDIERDMLCEDLAHATEQLNMLTEASKK (UniProt Q9NS87),-0.617
9,ITPR1_Q14643_2224_TMEQIVFPVPSICEFLTK (UniProt Q14643),0.0547
10,KCTD9_Q7L273_220_CQGLNFSGADLSR (UniProt Q7L273),0.174
11,KIF15_Q9NS87_949_CEQQMAK (UniProt Q9NS87),0.0255
12,JMJD4_Q9H9V9_188_DWHLCR (UniProt Q9H9V9),0.0929
13,ITPR1_Q14643_1805_GEMSLAEVQCHLDK (UniProt Q14643),0.288
14,KDM4A_O75164_430_EDLSSEQYEMTECPAALAPVRPTHSSVR (UniProt O75164),-0.711
15,KIF22_Q14807_201_VLDLLDPASGDLVIREDCR (UniProt Q14807),-0.539
16,JAK2_O60674_178_VPVTHETQEECLGMAVLDMMR (UniProt O60674),0.027
17,KDM3B_Q7LBC6_937_EQEQDDSTVACR (UniProt Q7LBC6),0.269
18,KCTD3_Q9Y597_704_GATGECNISER (UniProt Q9Y597),-0.298
19,KCTD5_Q9NXV2_6_AENHCELLSPAR (UniProt Q9NXV2),-0.785
